Test results reported in US20230132667A1, “DRUG-LIKE MOLECULES AND METHODS FOR THE THERAPEUTIC TARGETING OF VIRAL RNA STRUCTURES” (UNIVERSITY OF WASHINGTON, priority 2020, published 2023).
Where “and” joins values, the source holds several entries; their conditions need not be identical. Equal entries are not always repeated. At least one structure is not confirmed: it was looked up by name or label, or the drawing left a doubt.

What was measured:
Type in all cases: binding
[1] = tested on: pre-miR-21; assay: Single point ligand-detected NMR relaxation assay in low salt buffer (stage 1); conditions: 100 μM small molecule in low salt buffer, 10 μM RNA
Source text: For initial screening and hit identification, a relaxation edited ligand-detect method is used to detect binding under low salt conditions. These initial conditions are chosen to facilitate the discovery of even low affinity compounds with favorable chemical characteristics. Binding compounds are identified through changes in peak height when comparing spectra for RNA-free and RNA-bound ligand (FIG. 8). The change in peak height is proportional to the increase in ligand line width, compared to the free small molecule, which occurs upon binding to the larger biomolecule. This NMR method is agnostic to biomolecular target, as it only depends on the longer rotational correlation time (Tc) of the small molecule bound in a complex with a much larger biomolecular target, which has a much […] correlation time; other NMR methods (e.g., STD) can be used as well.
Stage 1. […] The free ligand linewidths of compounds dissolved at concentration of 100 μM were quantified and compared to the ligand linewidths observed after addition of 10 μM RNA target. […]
Small molecule hit identification and tiered approach to ligand-detected NMR screening. In order to identify small molecules that bind to RNA and quantify the strength of the interaction, a tiered approach to NMR screening involving both ligand- and target-detected NMR experiments was used. […]

[2] = biological target: pre-miR-21; assay: Ligand-detected NMR titration in high salt buffer (stage 2); conditions: 100 μM ligand, fit with Equation 5, approximate, read-out: NMR apparent KD for pre-miR-21
[3] = tested on: pre-miR-21; assay: Target-detected NMR (TOCSY; stage 3); conditions: high salt, 37° C.

Row | Compound | single point binding response to pre-miR-21 [1] | Kd [2] | binding to pre-miR-21 by target-detected NMR (qualitative) [3]
1 | CCN1CCN(Cc2ccc(Nc3ncc(F)c(-c4cc(F)c5nc(C)n(C(C)C)c5c4)n3)nc2)CC1 [Abemaciclib] | binding responses | – | –
2 | CC(=O)c1c(C)c2cnc(Nc3ccc(N4CCNCC4)cn3)nc2n(C2CCCC2)c1=O [Palbociclib] | clear response in binding | 7 µM and > 4.4 µM | much weaker binding
